Measured values published in article PMC7864959.
No constants are given. Whether binding was seen depends on the method and setting. Binding calls can cover weak binding; strength is not graded here.

Protein sequences, listed by entry. Tags and fused reporters are not part of them. Lines headed by an entry give the natural chain unless they say otherwise; changes in a name come on top.
UniProt P25445: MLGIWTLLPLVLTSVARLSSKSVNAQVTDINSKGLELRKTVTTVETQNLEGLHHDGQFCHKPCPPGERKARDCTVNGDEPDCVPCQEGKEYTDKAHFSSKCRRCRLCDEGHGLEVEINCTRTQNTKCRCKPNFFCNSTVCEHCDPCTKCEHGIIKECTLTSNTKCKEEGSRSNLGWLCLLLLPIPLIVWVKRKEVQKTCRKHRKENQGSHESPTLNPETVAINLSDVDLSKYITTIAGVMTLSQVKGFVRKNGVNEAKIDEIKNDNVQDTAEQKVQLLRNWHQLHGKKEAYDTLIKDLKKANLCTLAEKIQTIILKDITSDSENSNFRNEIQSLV
UniProt Q13158: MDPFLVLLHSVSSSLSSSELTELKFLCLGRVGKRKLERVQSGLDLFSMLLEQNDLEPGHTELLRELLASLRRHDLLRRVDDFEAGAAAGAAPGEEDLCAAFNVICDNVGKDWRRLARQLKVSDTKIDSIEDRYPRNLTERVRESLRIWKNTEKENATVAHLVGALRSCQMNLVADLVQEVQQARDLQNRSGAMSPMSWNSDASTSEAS

Biological target: GST-tagged CD95 intracellular domain (UniProt P25445)
Experiment: pull-down; reconstituted CD95 DISC: glutathione sepharose beads coated with purified GST-CD95-IcD (10 µg) incubated with r-FADD (5 µg), 16 h at 20 °C; both purified

- binding: binds
Substance: recombinant FADD (from UniProt Q13158 1-208)
